Results from PMC8901301.
These are yes or no findings as the source states them, for the method shown. In cells and extracts the contact can be indirect. Some entries that bind do so weakly or less than the wild type.

Protein sequences, listed by entry. Tags and fused reporters are not part of them.
UniProt P53667: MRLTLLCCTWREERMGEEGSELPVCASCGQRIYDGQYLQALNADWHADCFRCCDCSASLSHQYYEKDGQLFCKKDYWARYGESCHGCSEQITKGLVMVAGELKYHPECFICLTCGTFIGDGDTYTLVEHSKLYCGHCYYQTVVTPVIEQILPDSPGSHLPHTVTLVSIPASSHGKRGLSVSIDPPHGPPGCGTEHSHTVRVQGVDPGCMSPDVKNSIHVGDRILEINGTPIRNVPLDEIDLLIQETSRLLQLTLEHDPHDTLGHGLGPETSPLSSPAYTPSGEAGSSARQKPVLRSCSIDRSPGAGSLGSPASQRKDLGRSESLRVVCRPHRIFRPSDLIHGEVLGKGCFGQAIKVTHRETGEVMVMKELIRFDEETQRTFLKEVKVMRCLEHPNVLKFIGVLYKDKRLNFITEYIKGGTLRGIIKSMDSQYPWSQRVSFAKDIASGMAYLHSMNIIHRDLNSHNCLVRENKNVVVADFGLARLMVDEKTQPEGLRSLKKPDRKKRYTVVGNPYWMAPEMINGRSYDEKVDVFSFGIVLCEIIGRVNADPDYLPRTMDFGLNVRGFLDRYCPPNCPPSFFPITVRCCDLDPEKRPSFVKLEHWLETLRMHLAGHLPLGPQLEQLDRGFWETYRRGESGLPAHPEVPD
UniProt O00506: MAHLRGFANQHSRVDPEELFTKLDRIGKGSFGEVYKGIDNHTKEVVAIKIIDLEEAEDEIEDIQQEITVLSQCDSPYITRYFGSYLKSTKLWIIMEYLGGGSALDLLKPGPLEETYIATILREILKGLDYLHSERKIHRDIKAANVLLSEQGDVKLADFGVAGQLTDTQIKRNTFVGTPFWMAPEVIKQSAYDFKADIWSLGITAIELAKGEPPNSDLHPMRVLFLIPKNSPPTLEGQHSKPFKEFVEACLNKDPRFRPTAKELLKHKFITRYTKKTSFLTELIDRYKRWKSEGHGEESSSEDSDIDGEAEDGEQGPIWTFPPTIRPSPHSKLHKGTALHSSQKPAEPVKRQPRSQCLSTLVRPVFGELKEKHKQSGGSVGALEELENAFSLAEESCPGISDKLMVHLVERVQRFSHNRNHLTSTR

Biological target: LIMK1 (UniProt P53667)
Assay: co-IP; no method section for the co-IP; cells, precipitated protein and antibodies not stated

## STK25 (from UniProt O00506 1-426)
  binding: binds
